# Measurements as given in the supplement of paper PMC4604168 (melanoma cell lines).
# The other results are listed elsewhere or left out. Single values are uncertain, as repeats are few or missing.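 The apoptosis fraction was the count of cleaved-PARP antibody-stained nuclei relative to all DNA-stained nuclei, imaged in 1,536-well plates. Screening doses were set so most cells survived, and baseline and induced cleaved-PARP levels vary greatly across cell lines.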
# Legend:
# Assay in all cases: cleaved PARP positive nuclei fraction relative to DMSO control; melanoma cells; higher = more apoptosis
# Conditions in all cases: library dose: low library concentration; 72 h
# 501Mel = test system: 501Mel
# A101D = test system: A101D
# A2058 = test system: A2058
# A375 = test system: A375
# C32 = test system: C32
# CBRC013 = test system: CBRC013 (line from a melanoma biopsy)
# CBRC014 = test system: CBRC014 (line from a melanoma biopsy)
# CBRC016 = test system: CBRC016 (line from a melanoma biopsy)
# CBRC017 = test system: CBRC017 (line from a melanoma biopsy)
# CBRC034 = test system: CBRC034 (line from a melanoma biopsy)
# COLO792 = test system: COLO792
# COLO800 = test system: COLO800
# COLO829 = test system: COLO829
# G361 = test system: G361
# IPC-298 = test system: IPC-298
# IST-MEL1 = test system: IST-MEL1
# LB2518-MEL = test system: LB2518-MEL
# LOXIMVI = test system: LOXIMVI
SMILES,cleaved PARP positive nuclei fraction (501Mel),cleaved PARP positive nuclei fraction (A101D),cleaved PARP positive nuclei fraction (A2058),cleaved PARP positive nuclei fraction (A375),cleaved PARP positive nuclei fraction (C32),cleaved PARP positive nuclei fraction (CBRC013),cleaved PARP positive nuclei fraction (CBRC014),cleaved PARP positive nuclei fraction (CBRC016),cleaved PARP positive nuclei fraction (CBRC017),cleaved PARP positive nuclei fraction (CBRC034),cleaved PARP positive nuclei fraction (COLO792),cleaved PARP positive nuclei fraction (COLO800),cleaved PARP positive nuclei fraction (COLO829),cleaved PARP positive nuclei fraction (G361),cleaved PARP positive nuclei fraction (IPC-298),cleaved PARP positive nuclei fraction (IST-MEL1),cleaved PARP positive nuclei fraction (LB2518-MEL),cleaved PARP positive nuclei fraction (LOXIMVI)
"CC1(C)NC(=O)N(c2ccc([N+](=O)[O-])c(C(F)(F)F)c2)C1=O [nilutamide] + COC(=O)c1sccc1S(=O)(=O)Nc1ccc(Nc2ccccc2)cc1OC [GSK0660] (first compound 1 µM, partner dose 1 µM)",142%,142%,107%,45.4%,98.6%,77.1%,190%,35.9%,74.2%,42%,213%,98.4%,97.6%,152%,142%,40.8%,41.5%,59.3%
"Cc1cc(N2CCOCC2)cc2[nH]c(-c3c(NC[C@@H](O)c4cccc(Cl)c4)cc[nH]c3=O)nc12 + O=S(=O)(c1ccccc1)N(CC(F)(F)F)c1ccc(C(O)(C(F)(F)F)C(F)(F)F)cc1 [T0901317] (first compound 0.2 µM, partner dose 1.4 µM)",80.6%,126%,81.7%,154%,68.1%,163%,120%,94.9%,77.5%,188%,115%,221%,55.6%,59.1%,90.2%,135%,81.3%,661%
"O=C(CCCCCCC(=O)Nc1ccccc1)NO [vorinostat] + CCCCCCCCCCCC1=C(O)C(=O)C=C(O)C1=O [Embelin] (first compound 0.08 µM, partner dose 1.2 µM)",81.8%,143%,62.6%,124%,110%,56.5%,86.6%,69.6%,107%,47.7%,87%,87.5%,105%,155%,56.5%,89.9%,85%,59.1%
"C=CCn1c(=O)c2cnc(Nc3ccc(N4CCN(C)CC4)cc3)nc2n1-c1cccc(C(C)(C)O)n1 + CCc1ccc(CCOc2ccc(CC3SC(=O)NC3=O)cc2)nc1 [pioglitazone] (first compound 0.02 µM, partner dose 2 µM)",182%,76.6%,69.8%,326%,85.2%,166%,114%,81.2%,106%,180%,84.7%,116%,112%,288%,88.8%,44.8%,112%,98.6%
"CO[C@@H]1[C@H](N(C)C(=O)c2ccccc2)C[C@H]2O[C@]1(C)n1c3ccccc3c3c4c(c5c6ccccc6n2c5c31)C(=O)NC4 [Midostaurin] + COc1cc(N2CCC(N3CCN(C)CC3)CC2)ccc1Nc1ncc(Cl)c(Nc2ccccc2S(=O)(=O)C(C)C)n1 [NVP-TAE684] (first compound 0.08 µM, partner dose 0.08 µM)",326%,58.1%,74.5%,128%,70.5%,244%,118%,48%,74.7%,93.2%,152%,142%,124%,135%,127%,257%,207%,78.5%
"COCC[n+]1c2c(n(Cc3cnccn3)c1C)C(=O)c1ccccc1C2=O + Oc1nc(-c2ccc(C(F)(F)F)cc2)nc2c1CSCC2 [XAV939] (first compound 0.0004 µM, partner dose 2 µM)",70.6%,57.4%,388%,184%,81.4%,441%,97.7%,96.7%,76.2%,94.1%,163%,118%,110%,79.4%,24.1%,47.1%,105%,32.6%
"Cc1nc(Nc2ncc(C(=O)Nc3c(C)cccc3Cl)s2)cc(N2CCN(CCO)CC2)n1 [dasatanib] + Cc1cc([N+](=O)[O-])ccc1NS(=O)(=O)c1cc(Cl)ccc1Cl [FH535] (first compound 0.004 µM, partner dose 1 µM)",94.4%,149%,116%,147%,250%,58.7%,148%,1100%,291%,737%,291%,165%,215%,66%,202%,125%,95.3%,181%
"CC1(C)NC(=O)N(c2ccc([N+](=O)[O-])c(C(F)(F)F)c2)C1=O [nilutamide] + CC(C)CCN1c2nc(Nc3cc(F)c(O)c(F)c3)ncc2N(C)C(=O)C1C [BID1870] (first compound 1 µM, partner dose 0.2 µM)",165%,262%,126%,95.5%,78.5%,88.3%,104%,109%,90.3%,49.8%,135%,98.8%,52.4%,38.3%,344%,138%,94.3%,56.5%
"Cc1ccc(NC(=O)c2cccc(N(C)C)c2)cc1NC(=O)c1ccc(O)cc1 + COc1ccc(-c2ccc3c(N4CCOCC4)nc(N4C[C@@H](C)O[C@@H](C)C4)nc3n2)cc1CO [KU0063794] (first compound 2 µM, partner dose 0.02 µM)",116%,299%,43.6%,85.6%,140%,194%,231%,59.6%,84.8%,44.6%,69%,147%,56.3%,130%,68.4%,176%,180%,43%
"CC(C)(C)c1cnc(CSc2cnc(NC(=O)C3CCNCC3)s2)o1 + Oc1cc(-c2nc(-c3ccccc3)[nH]c2-c2ccncc2)ccc1Cl [L779450] (first compound 0.01 µM, partner dose 0.2 µM)",64%,64.1%,137%,252%,99.6%,79.3%,98.8%,109%,70.5%,90.6%,118%,195%,128%,122%,105%,41.7%,82.5%,95.7%
"Cc1ccc(NC(=O)c2cccc(N(C)C)c2)cc1NC(=O)c1ccc(O)cc1 + COC(=O)c1sccc1S(=O)(=O)Nc1ccc(Nc2ccccc2)cc1OC [GSK0660] (first compound 2 µM, partner dose 1 µM)",154%,108%,111%,61.8%,55.8%,129%,113%,57%,114%,108%,73.5%,109%,99.3%,107%,71.9%,479%,100%,114%
"O=C(CCCCCCC(=O)Nc1ccccc1)NO [vorinostat] + COc1cc2ncnc(Nc3ccc(Oc4ccccc4)cc3)c2cc1OC [SrcI1] (first compound 0.08 µM, partner dose 2 µM)",84.5%,39.6%,94.8%,15.3%,75.4%,64.2%,80.1%,61.2%,114%,92%,87.4%,26.8%,69.7%,75.5%,55.5%,44.7%,62.9%,78.3%
"OCCn1cc(-c2cnc3nnn(Cc4ccc5ncccc5c4)c3n2)cn1 + COc1ccc2c(c1)CCC1C2CCC2(C)C(NCCCCCCN3C(=O)C=CC3=O)CCC12 [U73122] (first compound 1 µM, partner dose 0.4 µM)",168%,70%,55.4%,121%,136%,92.5%,98%,42.5%,83.9%,47.2%,84.8%,72.1%,80.5%,26.5%,154%,133%,80.2%,110%
"C=CCn1c(=O)c2cnc(Nc3ccc(N4CCN(C)CC4)cc3)nc2n1-c1cccc(C(C)(C)O)n1 + CC(C)CCN1c2nc(Nc3cc(F)c(O)c(F)c3)ncc2N(C)C(=O)C1C [BID1870] (first compound 0.02 µM, partner dose 0.2 µM)",109%,233%,94.5%,356%,75.8%,116%,124%,104%,103%,118%,96.4%,197%,51.9%,63.3%,81.8%,163%,112%,57.5%
"C[C@@H]1CCN(C(=O)CC#N)C[C@@H]1N(C)c1ncnc2[nH]ccc12 + COc1ccc2c(c1)CCC1C2CCC2(C)C(NCCCCCCN3C(=O)C=CC3=O)CCC12 [U73122] (first compound 1 µM, partner dose 0.4 µM)",87.3%,84.3%,85.3%,107%,147%,157%,107%,87%,87.4%,80.6%,153%,31.1%,88.2%,74.2%,33.3%,107%,161%,12.9%
"C#Cc1cccc(Nc2ncnc3cc(OCCOC)c(OCCOC)cc23)c1 [erlotinib] + CCc1ccc(CCOc2ccc(CC3SC(=O)NC3=O)cc2)nc1 [pioglitazone] (first compound 0.8 µM, partner dose 2 µM)",37.7%,231%,95.1%,67.2%,131%,228%,99%,94.1%,72.4%,46.5%,105%,111%,128%,51.1%,89.7%,88.2%,91.1%,36.3%
"Nc1cccc2c1CN(C1CCC(=O)NC1=O)C2=O (centres undefined) [lenalidomide] + CCc1ccc(CCOc2ccc(CC3SC(=O)NC3=O)cc2)nc1 [pioglitazone] (first compound 1 µM, partner dose 2 µM)",86.1%,219%,51.3%,38.1%,187%,135%,85%,202%,91.9%,45.4%,146%,120%,188%,37.8%,52.9%,42.5%,44.8%,36.4%
"C=CCn1c(=O)c2cnc(Nc3ccc(N4CCN(C)CC4)cc3)nc2n1-c1cccc(C(C)(C)O)n1 + O=c1cc(-c2cccc3c2Sc2ccccc2S3)oc(N2CCOCC2)c1 [KU55933] (first compound 0.02 µM, partner dose 1 µM)",139%,281%,74.1%,181%,65.3%,52.1%,134%,22.7%,117%,57.1%,45.9%,123%,78.3%,60.4%,74.3%,51.7%,164%,49.7%

# 2 neighbouring entries out of the list so far, quoted:
SMILES,cleaved PARP positive nuclei fraction (501Mel),cleaved PARP positive nuclei fraction (A101D),cleaved PARP positive nuclei fraction (A2058),cleaved PARP positive nuclei fraction (A375),cleaved PARP positive nuclei fraction (C32),cleaved PARP positive nuclei fraction (CBRC013),cleaved PARP positive nuclei fraction (CBRC014),cleaved PARP positive nuclei fraction (CBRC016),cleaved PARP positive nuclei fraction (CBRC017),cleaved PARP positive nuclei fraction (CBRC034),cleaved PARP positive nuclei fraction (COLO792),cleaved PARP positive nuclei fraction (COLO800),cleaved PARP positive nuclei fraction (COLO829),cleaved PARP positive nuclei fraction (G361),cleaved PARP positive nuclei fraction (IPC-298),cleaved PARP positive nuclei fraction (IST-MEL1),cleaved PARP positive nuclei fraction (LB2518-MEL),cleaved PARP positive nuclei fraction (LOXIMVI)
"C[C@@H]1CCN(C(=O)CC#N)C[C@@H]1N(C)c1ncnc2[nH]ccc12 + COc1ccc2c(c1)CCC1C2CCC2(C)C(NCCCCCCN3C(=O)C=CC3=O)CCC12 [U73122] (first compound 1 µM, partner dose 0.4 µM)",87.3%,84.3%,85.3%,107%,147%,157%,107%,87%,87.4%,80.6%,153%,31.1%,88.2%,74.2%,33.3%,107%,161%,12.9%
"C#Cc1cccc(Nc2ncnc3cc(OCCOC)c(OCCOC)cc23)c1 [erlotinib] + CCc1ccc(CCOc2ccc(CC3SC(=O)NC3=O)cc2)nc1 [pioglitazone] (first compound 0.8 µM, partner dose 2 µM)",37.7%,231%,95.1%,67.2%,131%,228%,99%,94.1%,72.4%,46.5%,105%,111%,128%,51.1%,89.7%,88.2%,91.1%,36.3%
